PubChem BioAssay AID316 (DTP/NCI, 2004)
The list is a part of this screen's results and no random one: its compounds were picked by chemical class. Other doses and runs of a compound may be missing. T/C is the treated group as % of the vehicle group. Some entries give survivors of the animals treated and no T/C: the source holds a T/C of zero for them, seemingly a mark for toxic or unscored doses. Some doses without a T/C left all or most animals alive at the check, yet need not have been tolerated: the source hardly ever lists a survival T/C far under the control, and the zero likely stands for such cases as well. Counts of survivors are from the toxicity check (mostly the fifth day) where no day follows; animals may have died later. Schedules are NCI's codes, read here as Q, the interval in days (D) or hours (H), X, the number of doses. Where survival is the endpoint, this PubChem deposit counts one and a half times the control or more as active, and values a quarter to a half above the control carry no call in these data; other NCI protocols may use other cut-offs. Some entries were tested several times; the results are listed from low to high.

Tested on: P1534 leukemia ip, CD2F1 mice, survival T/C
Test: NCI In Vivo Anticancer Drug Screen. Data for tumor model P1534 Leukemia (intraperitoneal) in CD2F1 (CDF1) mice
Conditions: T/C endpoint: mean survival time, schedule: Q01DX010 (ip), vehicle: saline, higher T/C = longer survival
Procedure: The antitumor activity of compounds was measured in mice bearing transplantable tumors. Survival or tumor size were measured and the results are expressed as the measurement made in the treated group (T) divided by the measurement made in the vehicle treated control group (C). The tumor model used in this assay is P1534 Leukemia (intraperitoneal) in CD2F1 (CDF1) mice

## O=C(NN(CCCl)CCCl)c1ccccc1
dose: 12.5 mg/kg/injection
  T/C: 100 % of control
dose: 25.0 mg/kg/injection
  T/C: 100 % of control
dose: 50.0 mg/kg/injection
  T/C: 107 % of control
dose: 100.0 mg/kg/injection
  survivor count: 5 of 6

## Cc1[nH]c(=O)[nH]c(=O)c1N(CCCl)CCCl
dose: 0.5 mg/kg/injection
  T/C: 140 % of control
dose: 1.0 mg/kg/injection
  T/C: 133 % of control
dose: 2.0 mg/kg/injection
  survivor count: 6 of 6
dose: 4.0 mg/kg/injection
  survivor count: 6 of 6

## CN(N=O)C(=N)N[N+](=O)[O-]
dose: 8.0 mg/kg/injection
  T/C: 130 and 170 % of control
dose: 16.0 mg/kg/injection
  T/C: 130 and 140 % of control
dose: 32.0 mg/kg/injection
  T/C: 95 % of control
  survivor count: 6 of 6
dose: 64.0 mg/kg/injection
  survivor count: 4 of 6

## CC[C@H](C)[C@@H]1NC(=O)/C(=C(\C)O)C1=O
dose: 3.9 mg/kg/injection
  T/C: 100 % of control
dose: 7.8 mg/kg/injection
  T/C: 100 % of control
dose: 15.6 mg/kg/injection
  T/C: 100 and 107 % of control
dose: 31.3 mg/kg/injection
  T/C: 92 and 103 % of control
dose: 62.5 mg/kg/injection
  survivor count: 6 of 6
dose: 125.0 mg/kg/injection
  survivor count: 0 of 6

## NC1CCCCC1.O=P(O)(N(CCCl)CCCl)N1CC1
dose: 1.25 mg/kg/injection
  T/C: 107 % of control
dose: 2.5 mg/kg/injection
  T/C: 140 % of control
dose: 5.0 mg/kg/injection
  T/C: 196 % of control
dose: 10.0 mg/kg/injection
  T/C: 181 % of control

## CC[C@@H](C)[C@@H]1NC(=O)/C(=C(\C)O)C1=O.c1ccc(CNCCNCc2ccccc2)cc1
dose: 10.0 mg/kg/injection
  T/C: 100 % of control
dose: 14.0 mg/kg/injection
  T/C: 100 % of control
dose: 20.0 mg/kg/injection
  T/C: 100 % of control
dose: 30.0 mg/kg/injection
  T/C: 100 % of control
